No constants are given. Whether binding was seen depends on the method and setting. In cells and extracts the contact can be indirect. Tags and fused reporters may be left off the sequences shown.
Target: T1, GST-CHMP2A (human) (UniProt O43633)
T1 sequence: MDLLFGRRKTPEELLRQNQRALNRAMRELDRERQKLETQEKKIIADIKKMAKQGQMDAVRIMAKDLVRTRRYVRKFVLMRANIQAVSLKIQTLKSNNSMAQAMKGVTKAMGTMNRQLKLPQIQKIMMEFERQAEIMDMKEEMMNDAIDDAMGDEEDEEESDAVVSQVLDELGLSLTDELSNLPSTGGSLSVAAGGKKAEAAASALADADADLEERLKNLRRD
Experiment: pull-down; 293T cells co-transfected with pCAGGS/GST fusions and HA- or YFP-tagged proteins; glutathione-sepharose 3 hr at 4°C; 150 mM NaCl, Triton X-100; Western blot

binding: no binding
Substance: YFP-IST1 WT (human)

From paper PMC4475061
